Library screen at single concentrations

Data taken from ChEMBL document CHEMBL3988442, “University of Dundee, Small-Polar-MMV Screening Library” (2021).

Results are given as percent effect.
The record does not define 0% and 100%; most values in the screen are far below 50% and negative numbers occur (in some assays of this library far below -100).
This is an unselected part of the compounds tested.
Two or more numbers in one place are separate tests of the same structure; such repeats can differ widely.

A: 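Phenotypic screen: M. tuberculosis growth, cholesterol and DPPC medium, 4 days; the read-out is not stated. Concentration: 50 µM. Direction is inferred from retests: higher values go with more growth inhibition. Of about 69,000 compounds tested this way, about 370 (0.54%) reached 50% or more in at least one test.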
B: 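Whole-cell growth test on Mycobacterium tuberculosis, read after 3 days in glucose-containing 7H9 medium; the read-out is not stated. Compounds at 50 µM. The record gives no direction; compounds that gave an IC50 in retests scored well above the rest, so higher reads as more growth inhibition. Size under these conditions: about 69,000 compounds, about 760 of them at 50% or above in at least one test.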

Compound: O=c1c(NCCc2ccc(O)cc2)c(NCc2ccco2)c1=O
A: -6.578%
B: 2.117%

Compound: CC(c1ccccn1)N(C)Cc1ccc(-n2cncn2)cc1 (stereo not given)
A: 8.588%
B: -33.57% and -1.07%

Compound: Cn1cc(CNC(=O)Nc2ccc(S(=O)(=O)C(F)F)cc2)cn1
A: 3.6%
B: 10.39%

Compound: CCc1cc(CN(C)Cc2nc(-c3ccc(OC)cc3F)oc2C)on1
A: 6.765% and 29.77%
B: 37.62%

Compound: CNC(=O)C(C)(C)CNC(=O)Nc1cc(C)ccn1
A: 5.814% and 9.471%
B: -6.208% and 6.669%

Compound: CN(C)C1CCN(C(=O)NCc2ccc(Cn3cncn3)cc2)CC1
A: -11.61%
B: 1.443%

Compound: CC(C)c1nnc(NCc2cc3n(n2)CCN(C2CCCCC2)C3)s1
A: -11.77%
B: 11.27%

Compound: CN(C)C(CNC(=O)c1ncoc1-c1ccccc1)c1ccsc1 (stereo not given)
A: -2.162%
B: 8.064%

Compound: O=C(CNc1ccc(F)cc1OCC(F)(F)F)NCc1ccco1
A: 15.16% and 13.49%
B: 19%

Compound: CC(C)c1nn(C)c(N(C)C)c1CNC1CCc2cc(F)ccc21.Cl (stereo not given)
A: -11.7%
B: 9.454%

Compound: Cc1ccc(Cn2nc(C)c3c(C(=O)O)c(Cl)c(C4CC4)nc32)cc1
A: -1.103%
B: -3.635%

Compound: CCC(NC1CSCCSC1)c1ccc(S(C)(=O)=O)cc1 (stereo not given)
A: 15.36%
B: 19.78% and 4.122%

Compound: O=C(CC1CCCC1)N1CCn2cc(Cn3cccn3)nc2C1.O=C(O)C(F)(F)F
A: -12.33% and 7.114%
B: -15.92%

Compound: Cc1cncc(C(=O)N2CCC3(CC2)C(=O)Nc2ccccc23)c1
A: -4.482% and 15.81%
B: 18.57% and 5.008%

Compound: Cn1cc(-c2cc(C(=O)N3CCOCC3)c3ccc(F)cc3n2)cn1
A: -18.93%
B: -27.15%

Compound: c1nc(N2CCCC(Cn3cncn3)C2)c2sccc2n1 (stereo not given)
A: -3.193%
B: -9.716%

Compound: COc1ccc(C)cc1C1(CNc2cncc(Cl)n2)CCOCC1
A: -15.37%
B: 8.969%

Compound: Cc1cc(CCC(=O)N2CC[C@H](O)C2)ccc1Br
A: 8.534%
B: 25.3%

Compound: CN1Cc2nc[nH]c2C[C@H]1C(=O)NC1CCCCC1
A: -6.517%
B: 5.166% and -5.858%

Compound: O=C(c1ccn(COc2ccc(F)cc2)n1)N1CCCCCC1
A: 14.95%
B: -1.878%

Compound: CCCn1nnnc1CN(C)C(C)c1ccc(C)cc1 (stereo not given)
A: -1.699%
B: 10.97%

Compound: CN(C)c1nccc(N(C)C2CCOCC2)n1
A: 8.252% and -6.203%
B: 5.876%

Compound: Clc1ccc2nncc(N3CCCCC3)c2c1
A: -3.843%
B: 7.951%

Compound: CC(CNC(=O)CCCc1ccccn1)c1ccsc1 (stereo not given)
A: 12.84%
B: 2.829% and 14.01%

Compound: [H][C@@]12CN(CCOC)C[C@]1([H])OCCN2c1ccnc(N(C)C)n1
A: -15.11%
B: -14.74%

Compound: CN(C)CCn1cc(NC(=O)NC(C)(C)c2nccs2)cn1
A: 6.43%
B: -0.08664% and -21.34%

Compound: CCN1CC(C(=O)N(C)Cc2cc3cc(F)ccc3[nH]2)CC1=O (stereo not given)
A: 14.38%
B: 21.5%

Compound: CC(C)c1nc(CN2CCN(C(=O)OC(C)(C)C)C(C)C2)no1 (stereo not given)
A: 11.04%
B: -5.324%

Compound: Cc1noc(C)c1S(=O)(=O)NC(=O)COc1ccc(C(C)C)cc1
A: 1.045%
B: 6.685%

Compound: COc1ccc(NC(=O)C2CC(=O)N(C)C2)cn1 (stereo not given)
A: -56.26%
B: -39.92%

Compound: CC(Cc1ccccc1Br)NC(=O)CCS(C)(=O)=O (stereo not given)
A: -29.31%
B: 13.27%

Compound: Cc1nnc2n1CCN(C(=O)c1cnc(C3CC3)s1)C2
A: 1.798%
B: 22.96%

Compound: OC1CCN(CCCNc2ncccn2)CC1
A: -6.742%
B: 3.88%

Compound: CC(C)c1ccc(/C=C/CC(=O)NC2CCS(=O)(=O)CC2)cc1
A: 19.94%
B: 9.456% and 13.89%

Compound: CC(C)(C)n1cc(C(=O)NCCCn2ccnc2)c2cccnc21
A: -22.15%
B: 26.52%

For reference, 4 entries once more:

For CC(C)c1nc(CN2CCN(C(=O)OC(C)(C)C)C(C)C2)no1 (stereo not given) the result was A: 11.04%; B: -5.324%.
For c1nc(N2CCCC(Cn3cncn3)C2)c2sccc2n1 (stereo not given) the result was A: -3.193%; B: -9.716%.
For Clc1ccc2nncc(N3CCCCC3)c2c1 the result was A: -3.843%; B: 7.951%.
For Cc1nnc2n1CCN(C(=O)c1cnc(C3CC3)s1)C2 the result was A: 1.798%; B: 22.96%.